In publication PMC4850076:
No constants are given. Whether binding was seen depends on the method and setting. Some results given as binding are weak or reduced against the parent protein; the word gives no strength.

By UniProt entry, the sequences of proteins in these tests, tags left out. Residues count along the entry.
UniProt P25156, residues 10-233: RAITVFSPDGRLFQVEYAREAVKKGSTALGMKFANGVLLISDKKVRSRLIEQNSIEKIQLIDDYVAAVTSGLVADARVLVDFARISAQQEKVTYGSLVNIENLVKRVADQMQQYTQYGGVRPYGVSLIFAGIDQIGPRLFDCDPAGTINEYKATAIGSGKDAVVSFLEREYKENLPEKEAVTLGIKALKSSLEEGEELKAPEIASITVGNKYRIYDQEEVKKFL

Biological target: Thermoplasma acidophilum 20S proteasome, subunit other than the β subunit (α subunit) (Thermoplasma acidophilum) (UniProt P25156)
Experiment: cryo-EM structure; single particle analysis of purified 20S proteasome, 0.5 mg/ml, plunge-frozen on holey carbon grids; in-focus Volta phase plate and conventional defocus datasets; Relion, D7 symmetry; both purified

B1: Thermoplasma acidophilum 20S proteasome β subunit (protein, UniProt P28061 9-211)
chain: TTTVGITLKDAVIMATERRVTMENFIMHKNGKKLFQIDTYTGMTIAGLVGDAQVLVRYMKAELELYRLQRRVNMPIEAVATLLSNMLNQVKYMPYMVQLLVGGIDTAPHVFSIDAAGGSVEDIYASTGSGSPFVYGVLESQYSEKMTVDEGVDLVIRAISAAKQRDSASGGMIDVAVITRKDGYVQLPTDQIESRIRKLGLIL
Which binding does the source give for B1 here?
The binding was “binds”.
